{"sequences": {"note": "By UniProt entry, the sequences of proteins in these tests, tags left out.", "UniProt P08151": "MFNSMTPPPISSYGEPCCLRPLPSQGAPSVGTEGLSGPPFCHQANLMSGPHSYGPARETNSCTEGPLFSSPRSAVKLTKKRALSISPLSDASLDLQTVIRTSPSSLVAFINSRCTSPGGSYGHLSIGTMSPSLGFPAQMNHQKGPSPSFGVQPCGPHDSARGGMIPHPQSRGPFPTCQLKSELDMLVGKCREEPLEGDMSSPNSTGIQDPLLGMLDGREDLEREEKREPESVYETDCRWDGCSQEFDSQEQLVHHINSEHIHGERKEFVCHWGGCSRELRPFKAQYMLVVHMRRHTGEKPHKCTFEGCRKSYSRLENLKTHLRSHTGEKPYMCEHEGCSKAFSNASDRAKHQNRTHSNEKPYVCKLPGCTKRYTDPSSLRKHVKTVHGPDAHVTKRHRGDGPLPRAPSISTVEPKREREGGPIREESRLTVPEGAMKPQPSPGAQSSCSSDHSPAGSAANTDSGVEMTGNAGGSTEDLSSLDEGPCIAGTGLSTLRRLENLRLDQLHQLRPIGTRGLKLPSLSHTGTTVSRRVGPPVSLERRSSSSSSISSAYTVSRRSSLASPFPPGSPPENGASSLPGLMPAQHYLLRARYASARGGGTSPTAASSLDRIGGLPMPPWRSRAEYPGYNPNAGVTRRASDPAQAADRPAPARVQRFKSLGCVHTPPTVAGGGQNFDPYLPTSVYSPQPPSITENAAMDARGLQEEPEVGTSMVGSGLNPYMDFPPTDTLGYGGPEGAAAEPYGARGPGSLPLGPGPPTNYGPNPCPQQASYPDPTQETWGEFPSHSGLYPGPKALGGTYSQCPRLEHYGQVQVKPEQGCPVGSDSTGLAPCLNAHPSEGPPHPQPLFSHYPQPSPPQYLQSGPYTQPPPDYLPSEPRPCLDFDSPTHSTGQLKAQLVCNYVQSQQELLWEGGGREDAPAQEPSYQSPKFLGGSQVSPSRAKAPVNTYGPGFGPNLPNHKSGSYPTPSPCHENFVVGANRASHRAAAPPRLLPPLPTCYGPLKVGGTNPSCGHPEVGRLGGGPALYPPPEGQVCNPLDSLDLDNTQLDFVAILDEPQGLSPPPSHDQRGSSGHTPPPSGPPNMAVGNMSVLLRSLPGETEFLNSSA"}, "source": "paper PMC6258492", "target": "T1, Ubiquitin specific peptidase 37 (USP37) (human (endogenous in MCF-7)) (UniProt Q86T82)", "T1 sequence": "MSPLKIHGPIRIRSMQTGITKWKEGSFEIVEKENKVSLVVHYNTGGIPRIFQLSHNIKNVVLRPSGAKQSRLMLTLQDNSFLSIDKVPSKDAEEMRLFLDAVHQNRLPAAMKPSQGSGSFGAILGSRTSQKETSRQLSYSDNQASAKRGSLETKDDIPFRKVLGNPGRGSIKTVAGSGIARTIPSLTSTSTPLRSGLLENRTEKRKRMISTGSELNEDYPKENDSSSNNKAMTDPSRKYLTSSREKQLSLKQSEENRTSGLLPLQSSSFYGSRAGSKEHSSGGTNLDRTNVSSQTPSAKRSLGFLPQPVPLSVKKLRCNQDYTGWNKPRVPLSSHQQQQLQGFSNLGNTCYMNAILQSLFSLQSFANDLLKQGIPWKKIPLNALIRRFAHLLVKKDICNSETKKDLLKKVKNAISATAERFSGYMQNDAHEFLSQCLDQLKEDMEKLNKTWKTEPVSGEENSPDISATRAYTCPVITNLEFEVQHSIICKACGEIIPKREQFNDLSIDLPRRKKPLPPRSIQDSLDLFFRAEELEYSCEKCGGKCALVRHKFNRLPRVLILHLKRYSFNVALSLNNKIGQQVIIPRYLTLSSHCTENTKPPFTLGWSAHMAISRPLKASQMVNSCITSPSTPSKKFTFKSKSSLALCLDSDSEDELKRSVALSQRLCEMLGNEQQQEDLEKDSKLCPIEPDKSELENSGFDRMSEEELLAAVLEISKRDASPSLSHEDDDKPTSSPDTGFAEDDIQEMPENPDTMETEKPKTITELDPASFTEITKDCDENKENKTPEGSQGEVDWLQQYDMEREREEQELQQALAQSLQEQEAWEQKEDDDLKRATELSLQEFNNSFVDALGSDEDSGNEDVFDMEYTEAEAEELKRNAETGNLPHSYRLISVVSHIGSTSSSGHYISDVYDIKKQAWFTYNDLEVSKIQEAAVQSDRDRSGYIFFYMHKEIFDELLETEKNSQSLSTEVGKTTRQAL", "test": "co-IP; 8 x 10^6 MCF-7 cells lysed in IP lysis buffer with protease inhibitor; IP Kit (Proteintech Group); endogenous proteins; which protein was precipitated not given", "note": "These are yes or no findings as the source states them, for the method shown. In cells and extracts the contact can be indirect. Some entries that bind do so weakly or less than the wild type.", "data": [{"substance": "glioma-associated oncogene 1 (Gli-1) (from UniProt P08151 1-1106)", "values": [{"measurement": "binding", "result": "binds"}]}]}
